From patent US20230079819A1, “COMPOUNDS AND USES THEREOF” (Foghorn Therapeutics Inc., priority 2019, published 2023)
The structures given here were assigned with low confidence; some may be wrong.

Chains of the proteins cited; added tags and fusions are not shown.
UniProt P51532, whole entry: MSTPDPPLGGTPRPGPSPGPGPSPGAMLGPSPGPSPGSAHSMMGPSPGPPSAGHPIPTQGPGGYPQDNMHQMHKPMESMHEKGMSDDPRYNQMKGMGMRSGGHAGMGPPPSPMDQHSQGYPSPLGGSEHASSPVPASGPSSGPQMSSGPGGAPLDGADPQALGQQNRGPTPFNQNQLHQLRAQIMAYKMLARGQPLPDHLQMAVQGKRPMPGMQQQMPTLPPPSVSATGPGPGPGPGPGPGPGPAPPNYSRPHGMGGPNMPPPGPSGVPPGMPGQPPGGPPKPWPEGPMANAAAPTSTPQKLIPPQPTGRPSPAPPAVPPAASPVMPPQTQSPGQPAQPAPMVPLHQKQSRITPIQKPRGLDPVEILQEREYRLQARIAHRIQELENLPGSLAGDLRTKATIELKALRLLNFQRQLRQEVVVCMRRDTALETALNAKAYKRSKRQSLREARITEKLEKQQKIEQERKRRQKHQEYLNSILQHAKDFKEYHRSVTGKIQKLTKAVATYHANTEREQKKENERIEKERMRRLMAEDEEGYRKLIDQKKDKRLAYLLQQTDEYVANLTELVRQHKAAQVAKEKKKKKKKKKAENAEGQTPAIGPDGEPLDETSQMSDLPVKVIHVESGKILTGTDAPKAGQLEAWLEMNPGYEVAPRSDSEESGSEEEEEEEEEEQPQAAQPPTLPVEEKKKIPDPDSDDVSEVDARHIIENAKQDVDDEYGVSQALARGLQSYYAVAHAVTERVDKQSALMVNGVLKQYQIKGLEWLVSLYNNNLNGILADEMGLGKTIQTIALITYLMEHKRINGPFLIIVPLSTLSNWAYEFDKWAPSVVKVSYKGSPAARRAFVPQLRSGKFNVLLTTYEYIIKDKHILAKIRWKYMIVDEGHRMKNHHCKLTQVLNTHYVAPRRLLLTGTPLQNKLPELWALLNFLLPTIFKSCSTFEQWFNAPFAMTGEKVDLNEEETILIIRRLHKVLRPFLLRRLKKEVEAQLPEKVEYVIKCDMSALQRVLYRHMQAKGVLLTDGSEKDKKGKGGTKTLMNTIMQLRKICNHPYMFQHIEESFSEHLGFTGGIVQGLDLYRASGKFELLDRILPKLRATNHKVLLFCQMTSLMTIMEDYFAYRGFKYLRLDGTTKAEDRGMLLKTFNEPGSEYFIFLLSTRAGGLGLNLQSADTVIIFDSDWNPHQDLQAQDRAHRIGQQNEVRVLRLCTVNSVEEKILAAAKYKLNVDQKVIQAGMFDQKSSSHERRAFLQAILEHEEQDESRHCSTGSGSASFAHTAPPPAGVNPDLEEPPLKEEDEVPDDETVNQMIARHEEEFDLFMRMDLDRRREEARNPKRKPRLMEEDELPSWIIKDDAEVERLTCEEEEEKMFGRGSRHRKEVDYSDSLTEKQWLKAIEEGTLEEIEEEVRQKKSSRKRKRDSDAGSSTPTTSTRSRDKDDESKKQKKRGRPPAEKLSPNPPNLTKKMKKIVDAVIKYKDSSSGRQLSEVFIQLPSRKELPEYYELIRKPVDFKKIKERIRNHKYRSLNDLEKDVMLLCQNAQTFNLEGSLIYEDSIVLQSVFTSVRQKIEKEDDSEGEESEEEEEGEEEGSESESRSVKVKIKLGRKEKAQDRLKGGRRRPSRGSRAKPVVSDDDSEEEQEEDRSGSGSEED
UniProt P51531, whole entry: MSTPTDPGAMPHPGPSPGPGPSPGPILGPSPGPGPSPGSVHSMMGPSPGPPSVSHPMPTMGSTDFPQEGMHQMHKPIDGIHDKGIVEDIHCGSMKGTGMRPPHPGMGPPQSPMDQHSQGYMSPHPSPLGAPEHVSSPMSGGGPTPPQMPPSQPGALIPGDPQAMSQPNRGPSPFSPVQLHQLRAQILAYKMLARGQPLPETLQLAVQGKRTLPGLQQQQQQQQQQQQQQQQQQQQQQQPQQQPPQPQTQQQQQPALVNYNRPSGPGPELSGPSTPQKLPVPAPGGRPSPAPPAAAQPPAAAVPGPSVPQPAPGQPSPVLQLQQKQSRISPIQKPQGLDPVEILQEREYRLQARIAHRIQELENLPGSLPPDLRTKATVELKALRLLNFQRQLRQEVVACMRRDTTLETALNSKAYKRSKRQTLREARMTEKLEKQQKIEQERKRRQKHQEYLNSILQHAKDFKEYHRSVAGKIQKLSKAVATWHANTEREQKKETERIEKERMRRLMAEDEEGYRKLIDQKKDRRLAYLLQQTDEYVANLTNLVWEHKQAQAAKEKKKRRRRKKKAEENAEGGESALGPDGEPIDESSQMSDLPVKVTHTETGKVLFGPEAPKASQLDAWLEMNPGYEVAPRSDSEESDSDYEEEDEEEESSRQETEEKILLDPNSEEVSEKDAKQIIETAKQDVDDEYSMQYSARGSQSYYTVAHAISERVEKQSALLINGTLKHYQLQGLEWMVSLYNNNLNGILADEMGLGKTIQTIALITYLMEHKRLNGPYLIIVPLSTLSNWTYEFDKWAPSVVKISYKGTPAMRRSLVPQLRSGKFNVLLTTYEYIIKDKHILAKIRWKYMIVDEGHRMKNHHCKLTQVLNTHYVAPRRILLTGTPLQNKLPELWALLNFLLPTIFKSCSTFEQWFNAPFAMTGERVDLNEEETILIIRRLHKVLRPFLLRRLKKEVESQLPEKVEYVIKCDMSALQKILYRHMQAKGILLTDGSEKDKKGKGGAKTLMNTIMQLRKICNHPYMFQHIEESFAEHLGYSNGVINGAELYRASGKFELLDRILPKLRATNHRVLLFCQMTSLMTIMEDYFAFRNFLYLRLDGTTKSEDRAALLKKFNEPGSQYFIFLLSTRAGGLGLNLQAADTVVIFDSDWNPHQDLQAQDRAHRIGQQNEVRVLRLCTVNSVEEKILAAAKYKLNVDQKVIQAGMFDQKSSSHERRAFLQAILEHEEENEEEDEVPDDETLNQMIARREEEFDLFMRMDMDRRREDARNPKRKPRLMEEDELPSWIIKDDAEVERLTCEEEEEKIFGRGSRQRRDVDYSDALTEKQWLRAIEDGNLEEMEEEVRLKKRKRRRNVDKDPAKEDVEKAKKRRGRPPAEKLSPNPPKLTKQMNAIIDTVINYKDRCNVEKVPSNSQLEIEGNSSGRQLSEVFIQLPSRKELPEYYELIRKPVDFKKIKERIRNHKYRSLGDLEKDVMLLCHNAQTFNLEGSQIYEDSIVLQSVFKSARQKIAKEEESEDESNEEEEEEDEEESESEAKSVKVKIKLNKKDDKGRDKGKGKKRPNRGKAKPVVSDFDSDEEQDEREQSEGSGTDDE

Key:
[1] = target: BRG-1 (Homo sapiens, UniProt P51532); experiment: ATPase catalytic activity of BRG-1, ADP-Glo in vitro biochemical assay; conditions: read-out: BRG1 IP50 (μM)*, 30 nM BRG-1, 400 μM ATP
[2] = target: BRM (Homo sapiens, UniProt P51531); experiment: ATPase catalytic activity of BRM, ADP-Glo in vitro biochemical assay; conditions: read-out: BRM IP50 (μM)*, 30 nM BRM, 400 μM ATP

- IC50 [1]: > 0.01 µM
- IC50 [2]: > 0.01 µM
SMILES: CC(C)(C)n1ccc(C(=O)NCC(=O)Nc2nc(-c3cccc(N4CCC(O)CC4)n3)cs2)c1 [Compound 314]
